The inconclusive results got no clear call from the source; some entries with a clear call stand among them for comparison. Potencies of inconclusive entries are doubtful fits and often do not repeat. Activity calls are given as the source filed them. Rule for the calls: active = hit-call score of the fitted dose curve at least 0.9, where 1 is the maximum; inconclusive = response in the unintended direction; inactive = score below 0.9.
What follows are compounds tested on SRY-box transcription factor 17 (SOX17) Protein Expression, Deisenroth Lab, SOX17 (gene 64321) (assay: CCTE_Deisenroth_DEVTOX-GLR_Meso_SOX17: CCTE's DevTox GLR-Meso Assay Evaluation of SRY-box transcription factor 17 (SOX17) Protein Expression, Deisenroth Lab).
Experimental: CCTE_Deisenroth_DEVTOX-GLR_Meso assay is a cell-based, multiplex-readout assay that uses RUES2-GLR, a human pluripotent cell line, with measurements taken at 48 hours after chemical dosing in a 384-well microplateCCTE_Deisenroth_DEVTOX-GLR_Meso_SOX17 is 1 of 4 assay components calculated from the CCTE_Deisenroth_DEVTOX-GLR_Meso assay and it measures an the percentage of cells in an endoderm state. Using a type of inducible fluorescent protein reporter, gain-of-signal activity can be used to understand changes in gene expression with fluorescent microscopy. The percentage of SOX17+ cells are determined by calculating the number of SOX17+ cells divided by cell count. To generalize the intended target to other relatable targets, this assay component is annotated to the transcription factor intended target family, where the subfamily is SRY-related HMG-box.Data from the assay component CCTE_Deisenroth_DEVTOX-GLR_Meso_SOX17 was analyzed as 1 assay endpoint. The endpoint is the percent SOX17+ cell population minus the 0.2% DMSO control in the CCTE_Deisenroth_DEVTOX-GLR_Meso assay. This assay endpoint can be referred to as a secondary readout since this assay has produced multiple assay endpoints where this one serves as a measure of endoderm differentiation.
All assay protocols are aligned to the DevTox GLR-Endo assay workflow. Cells are seeded into 384-well microplates for 24 hours prior to initiating differentiation in defined media for a total duration of 48 hours. A total of two chemical exposures are administered in 24-hour intervals during the 48-hour differentiation period. At the assay termination point, cells are fixed and stained with a fluorescent dye demarcating the nucleus. High-content imaging is used to acquire brightfield and fluorescent channel images across 5 fields per well. Cell identification and mean biomarker fluorescence intensities are calculated with image analysis software to determine the total cell counts for viability assessment and the biomarker expression frequency for each lineage-dependent assay. A typical experimental design tests a 10-point concentration series (1 nM - 200 uM) for 28 compounds in single technical replicate. Assay plate controls include non-differentiated pluripotent cells (baseline control), lineage-specific differentiated cells (differentiation control), and DMSO solvent exposed differentiated cells (solvent control). Experiments typically comprise a minimum of four experimental replicates (n=4).
In the case of CC1(C)S[C@@H]2[C@H](NC(=O)Cc3ccccc3)C(=O)N2[C@H]1C(=O)O, the AC50 is reported as inconclusive: 100 µM. In the case of O=C1CCC(N2C(=O)c3ccccc3C2=O)C(=O)N1 (centres undefined), the outcome is reported as “inactive”. In the case of CC(=O)Nc1ccc(O)cc1, the AC50 is reported as inconclusive: 100 µM. With CCCC(CCC)C(=O)O the outcome was “inactive”.
